## Screening data, single-dose tests

Chains of the proteins cited; added tags and fusions are not shown. Residues count along the entry.
UniProt Q4DA54, 1-478: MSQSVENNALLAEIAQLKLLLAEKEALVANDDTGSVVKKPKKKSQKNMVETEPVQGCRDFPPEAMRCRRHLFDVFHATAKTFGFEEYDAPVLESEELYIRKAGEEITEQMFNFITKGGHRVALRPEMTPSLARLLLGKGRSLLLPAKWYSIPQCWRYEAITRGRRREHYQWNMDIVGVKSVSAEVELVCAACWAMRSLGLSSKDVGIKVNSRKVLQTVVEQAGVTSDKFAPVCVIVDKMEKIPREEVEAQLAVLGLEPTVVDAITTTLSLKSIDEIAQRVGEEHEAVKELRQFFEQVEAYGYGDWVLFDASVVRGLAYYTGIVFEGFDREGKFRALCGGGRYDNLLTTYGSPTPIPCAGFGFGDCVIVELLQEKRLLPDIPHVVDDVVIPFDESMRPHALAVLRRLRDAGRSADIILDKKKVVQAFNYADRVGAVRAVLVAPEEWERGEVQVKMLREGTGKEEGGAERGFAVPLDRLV
UniProt P9WPC5, whole entry: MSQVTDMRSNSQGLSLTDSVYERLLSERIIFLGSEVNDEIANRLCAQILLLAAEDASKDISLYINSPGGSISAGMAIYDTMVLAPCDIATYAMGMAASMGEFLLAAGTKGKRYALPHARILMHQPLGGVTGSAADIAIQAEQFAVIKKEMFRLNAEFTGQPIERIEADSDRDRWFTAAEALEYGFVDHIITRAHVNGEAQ
UniProt P9WPC3, whole entry partner: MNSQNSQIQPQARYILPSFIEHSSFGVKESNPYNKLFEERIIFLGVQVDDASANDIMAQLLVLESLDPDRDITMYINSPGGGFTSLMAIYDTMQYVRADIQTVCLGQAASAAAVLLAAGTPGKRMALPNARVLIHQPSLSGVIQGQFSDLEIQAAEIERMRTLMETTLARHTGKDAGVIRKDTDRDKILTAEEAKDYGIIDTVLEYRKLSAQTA
UniProt Q8IDJ8, 1-583: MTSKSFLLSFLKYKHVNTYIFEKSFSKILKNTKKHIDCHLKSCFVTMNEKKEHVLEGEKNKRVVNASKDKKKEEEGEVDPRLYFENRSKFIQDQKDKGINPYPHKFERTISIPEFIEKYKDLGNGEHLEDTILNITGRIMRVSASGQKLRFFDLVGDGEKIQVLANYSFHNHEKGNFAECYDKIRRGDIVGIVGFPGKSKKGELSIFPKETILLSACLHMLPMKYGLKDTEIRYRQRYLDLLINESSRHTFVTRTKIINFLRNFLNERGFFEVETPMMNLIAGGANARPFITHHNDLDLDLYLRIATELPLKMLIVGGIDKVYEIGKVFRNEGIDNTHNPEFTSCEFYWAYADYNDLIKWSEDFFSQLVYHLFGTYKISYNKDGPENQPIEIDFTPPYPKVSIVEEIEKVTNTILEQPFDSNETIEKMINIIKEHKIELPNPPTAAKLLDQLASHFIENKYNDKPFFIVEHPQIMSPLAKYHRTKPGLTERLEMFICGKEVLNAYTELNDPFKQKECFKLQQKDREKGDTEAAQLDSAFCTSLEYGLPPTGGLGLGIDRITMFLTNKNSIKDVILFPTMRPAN
UniProt A4I591, 1-473: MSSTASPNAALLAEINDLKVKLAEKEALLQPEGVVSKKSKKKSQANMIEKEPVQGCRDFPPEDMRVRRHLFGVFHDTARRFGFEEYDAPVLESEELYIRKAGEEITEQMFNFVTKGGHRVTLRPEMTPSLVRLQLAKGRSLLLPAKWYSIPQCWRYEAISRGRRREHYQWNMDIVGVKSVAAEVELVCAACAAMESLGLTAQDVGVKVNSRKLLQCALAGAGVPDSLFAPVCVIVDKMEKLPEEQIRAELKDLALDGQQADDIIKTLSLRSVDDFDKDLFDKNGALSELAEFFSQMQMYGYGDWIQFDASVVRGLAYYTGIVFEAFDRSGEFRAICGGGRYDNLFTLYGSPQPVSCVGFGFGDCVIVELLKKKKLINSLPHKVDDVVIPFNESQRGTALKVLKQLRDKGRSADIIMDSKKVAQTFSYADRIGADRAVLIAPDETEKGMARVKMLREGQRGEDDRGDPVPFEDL

TcHisRS: 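Enzyme assay of histidyl-tRNA synthetase; the read-out is not stated. Target: Histidine-tRNA ligase, Trypanosoma cruzi CL Brener (UniProt Q4DA54). Compounds at 30 µM. Direction is inferred from retests: higher values go with stronger inhibition. Size under these conditions: about 69,000 compounds, about 31 of them at 50% or above in at least one test.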
ClpP1P2: 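ClpP1P2, Mycobacterium tuberculosis (UniProt P9WPC5 and UniProt P9WPC3). Protease assay of ClpP1P2, read by the AMC dye that it sets free. Tested at 50 µM. Higher reads as stronger inhibition, judged from the few compounds that gave an IC50. Most other retested compounds had strongly negative values. About 69,000 compounds were tested under these conditions; 0.015% (about 10) showed 50% or more at least once.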
PfKRS1: 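Enzyme assay of the cytosolic lysyl-tRNA synthetase in 384-well plates, read by luminescence. Target: Lysine-tRNA ligase, Plasmodium falciparum 3D7 (UniProt Q8IDJ8). Concentration: 30 µM. Higher reads as stronger inhibition, judged from the few compounds that gave an IC50. Of about 69,000 compounds tested this way, about 49 (0.071%) reached 50% or more in at least one test.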
LiHisRS: 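Histidine-tRNA ligase, Leishmania infantum (UniProt A4I591). Enzyme assay of histidyl-tRNA synthetase; the read-out is not stated. Concentration: 30 µM. The record gives no direction; compounds that gave an IC50 in retests scored well above the rest, so higher reads as stronger inhibition. The assay is labelled LdHisRS but filed under L. infantum. Size under these conditions: about 69,000 compounds, about 410 of them at 50% or above in at least one test.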

Results are given as percent effect.
How 0% and 100% were set is not recorded. Most values in the screen are low, and negative values occur.
This is an unselected part of the compounds tested.

| # | structure | TcHisRS | ClpP1P2 | PfKRS1 | LiHisRS |
|---|---|---|---|---|---|
| 1 | `N#Cc1ccc(CCC(=O)N2CCCC(n3cncn3)C2)cc1` (centres unmarked) | 2.907% | -7.809% | 0.3609% | 0% |
| 2 | `Cc1nc2c(c(NCc3nc4ccccc4s3)n1)CCNCC2` | 19.66% | -3.199% | 5.251% | 7.692% |
| 3 | `CN(C)C(=O)CN1CCC2(CCN(CC3CC3)CC2)C1=O` | 0.9709% | 7.066% | -1.104% | 0% |
| 4 | `CC1CCc2nc(O)c(C(=O)NCc3cccc(F)c3)cc2C1` (centres unmarked) | 0.5464% | 2.329% | -1.341% | -1.942% |
| 5 | `NC(=O)N1CC[C@H]2CO[C@H](CNC(=O)c3ccnnc3)[C@H]2C1` | 6.952% | -4.889% | 1.532% | 29.91% |
| 6 | `COCc1ncn2c1CN(C(=O)Nc1ccccc1)CC2` | 7.477% | -3.709% | -1.065% | 15.28% |
| 7 | `Cc1ccc(C2CSCCN2C(=O)c2ccncc2)cc1` (centres unmarked) | 5.208% | -10.81% | 3.979% | -20.83% |
| 8 | `COCCNc1ccccc1CNC(=O)NCc1nc(C)c(C)s1` | 2.041% | -12.66% | -3.348% | 1.653% |
| 9 | `Cc1occc1C(=O)Nc1cnn(CCN2CCOCC2)c1` | 1.183% | -13.76% | -0.6226% | -1.786% |
| 10 | `CCS(=O)(=O)N1CCC(c2nnc(CN3CCCCCC3)n2C)CC1` | 3.261% | 0.2006% | 3.116% | 21.21% |
| 11 | `CCCc1cnc(C)nc1N1CCC(Cc2cccc(C(N)=O)c2)C1` (centres unmarked) | 2.146% | -3.23% | 3.371% | 14.75% |
| 12 | `COc1ccccc1CN1C(=O)O[C@@H]2CN(C(C)C)C[C@@H]21` | 9.091% | 6.052% | 5.456% | 3.333% |
| 13 | `CCn1nc2c(cc1=O)CN(Cc1ccc(-n3cccn3)cc1)CC2` | 8.387% | 1.595% | -1.792% | 5.051% |
| 14 | `COCCO[C@H]1CCN(Cc2cnn(C)c2)[C@H]1Cc1cccnc1` | 0.9346% | -4.665% | 2.153% | 0% |
| 15 | `Cc1cc(C)nc(NC(C)Cc2cnccn2)n1` (centres unmarked) | 0.9662% | -15.79% | -0.6813% | 5.833% |
| 16 | `CSCC[C@H]1CN2CCC[C@H]2CN1Cc1coc2ccc(C)cc2c1=O` | 3.03% | 12.88% | -1.053% | 11.59% |
| 17 | `Cc1nnc(CN2C[C@H]3CC[C@@H]2CN(C2Cc4ccccc4C2)C3)o1` | 23.2% | 5.24% | 4.533% | 30.97% |
| 18 | `Cc1ncc2c(n1)CCCC2NC(=O)c1ccncc1` (centres unmarked) | 3.347% | -12.36% | -2.079% | 2.83% |
| 19 | `COc1cccc(OCCc2nc3c(cc2C(N)=O)CCC3)c1` | 8.458% | 9.339% | 5.542% | 18.18% |
| 20 | `O=C(NCC(F)(F)F)C1CSCN1S(=O)(=O)c1ccc(F)cc1` (centres unmarked) | 1.88% | 10.18% | -1.21% | 18.92% |
| 21 | `COc1ncccc1CN1Cc2nccn2CC(Cn2cccn2)C1` (centres unmarked) | 5.525% | 8.455% | 3.502% | 9.91% |
| 22 | `COCCN1C[C@@H]2CN(Cc3ccc(F)cc3)C[C@@H]2C1=O` | -1.942% | 7.509% | 8.048% | 9.615% |
| 23 | `N#Cc1ccccc1OCCN1CCCCC1C(=O)N1CCOCC1` (centres unmarked) | -3.448% | -1.194% | -3.174% | 20.51% |
| 24 | `COc1ccc2c(ccn2CC(=O)N2CCCC2Cn2cccn2)c1` (centres unmarked) | 9.948% | 2.348% | 1.794% | 10.34% |
| 25 | `Cc1ccc(CNC(=O)c2ccc(CNS(C)(=O)=O)o2)cc1F` | -4.762% | -10.95% | -1.204% | 16.44% |
| 26 | `CN1CCO[C@@H]2CN(S(=O)(=O)c3cccnc3)C[C@@H]2C1` | 6.145% | -16.05% | 2.323% | 5.769% |
| 27 | `CCOc1cc(C)c(-c2cc(N)[nH]n2)cc1OCC` | 6% | -16.12% | 0.2219% | 21.74% |
| 28 | `Cc1cc(C2CCC2)nc(NCCC23CCCN2CCC3)n1` | 6.383% | 2.75% | 7.439% | 24.29% |
| 29 | `O=C(CCc1ccsc1)Nc1ccnn1C1CCS(=O)(=O)C1` (centres unmarked) | 1.667% | -2.933% | -0.6719% | 18.92% |
| 30 | `CCn1cc(-c2cc(C(F)F)n3nc(CC(=O)O)nc3n2)cn1` | 0% | 6.611% | 2.325% | 8.247% |
| 31 | `O=C(O)c1ccc(CNC(=O)C2CCN(Cc3ccco3)CC2)s1` | 1.288% | 12.82% | 4.194% | 1.639% |
| 32 | `CCC(C(=O)NCc1cccnc1)N(c1cccc(C)c1)S(C)(=O)=O` (centres unmarked) | -4.469% | -10.68% | -0.2892% | 8.333% |
| 33 | `Cn1ncc2c(N[C@@H]3CS(=O)(=O)C[C@H]3O)nc(C(C)(C)C)nc21` | 12.64% | 11.66% | 4.557% | 11.29% |
| 34 | `c1cncc(CN2CCC3(CCCN(c4nncs4)C3)C2)c1` (centres unmarked) | 3.261% | -3.867% | -0.4673% | 25% |
| 35 | `c1cnc(CC2CCN(c3cnccn3)CC2)cn1` | 5.385% | -22.9% | 3.283% | 5.634% |
| 36 | `COc1ccc(NC(=O)NCc2cccc(N(C)C)n2)c(Cl)c1` | 7.937% | -0.4529% | -0.1949% | 16.44% |
| 37 | `CCOCC(O)CN1CCN(C(=O)c2cc(F)cc(F)c2)CC1` (centres unmarked) | 4.571% | -20.1% | 1.107% | -1.923% |
| 38 | `O=C(CN1CCC(C(=O)c2cc(F)ccc2F)CC1)NC1CC1` | 0% | -20.04% | 0.6564% | 14.4% |
| 39 | `CCN(CC)S(=O)(=O)c1ccc2c(c1)N(Cc1ccccn1)C(=O)CS2` | 6% | -18.98% | 3.701% | 5.479% |
| 40 | `O=C1CN(C(=O)C2CN(c3ccc(F)cc3)CCO2)CCN1` (centres unmarked) | 5.303% | -5.448% | 0.7968% | 10.14% |
| 41 | `Cc1nn(C)c(Cl)c1C1CCCN1C(=O)c1cnc[nH]1` (centres unmarked) | 0.8596% | -1.179% | -0.1515% | 7.018% |
| 42 | `COCCN(Cc1ccc(F)cc1Cl)C(=O)c1cnn(C)c1C` | -1.97% | -5.519% | 6.279% | 28.77% |
| 43 | `O=C(Cc1c(F)cccc1F)N1CCN(CC(=O)N2CCCC2)CC1` | 2.256% | 21.66% | 0.39% | 9.756% |
| 44 | `CC(C)c1ccc(OCCC(=O)N2CCCC(C(N)=O)C2)cc1` (centres unmarked) | 4.142% | -23.52% | -0.4331% | 21.43% |
| 45 | `O=C1CCC(=O)N1Cc1ccc(C(=O)N2CCCC2c2cccs2)cc1` (centres unmarked) | 0% | 5.015% | 1.206% | 12.39% |
| 46 | `Cc1cc(-c2ccc(C(=O)O)cc2)nc(C2CCCN(C(C)C)C2)n1` (centres unmarked) | 1.075% | 9.435% | 0.47% | 20% |
| 47 | `O=C(N[C@@H]1CCN(c2nccc3ccccc23)C[C@H]1O)c1cnccn1` | 3.061% | -0.9141% | 8.197% | 19.44% |
| 48 | `CN(C)c1cc2c(nn1)CCN(C(=O)C1COc3ccccc3C1)C2` (centres unmarked) | 4.082% | -5.367% | 4.668% | 6.612% |
| 49 | `O=C(NCCn1nc2ccccn2c1=O)c1cccc2[nH]ncc12` | -4.58% | 25.85% | 1.477% | -8.511% |
| 50 | `Cc1ccc(NC(=O)NCCn2cnc(C)c(C)c2=O)cc1F` | -0.5291% | -4.226% | 1.334% | 4% |
| 51 | `Cc1nc(CN(C)C2CCN(Cc3ccc4c(c3)OCCO4)C2)no1` (centres unmarked) | 1.887% | 2.86% | 5.296% | 13.33% |
| 52 | `Cc1cnn(CC2CN(c3cnc4ccccc4n3)CCO2)c1` (centres unmarked) | -0.7519% | -49.02% | -0.3437% | -3.371% |
| 53 | `Cc1ncc(CN2CCCC(O)(c3ccc(F)cc3)CC2)n1C` (centres unmarked) | 1.916% | -14.55% | -3.317% | 5.755% |
| 54 | `O=C(N[C@@H]1CCNC[C@H]1O)c1ccc(O)c(Cl)c1` | -2.5% | -6.062% | 4.278% | 15.09% |
| 55 | `CCCc1nnc(NC2CCN(Cc3ccc(F)c(F)c3)CC2)o1` | 10.53% | -3.153% | 4.274% | 19.17% |
| 56 | `CNC(=O)C1CN(C)CCN1c1nc(C)cc(C)n1` (centres unmarked) | 1.149% | -6.26% | 0.1472% | -1.429% |
| 57 | `CCC(CO)NCc1ccc(-c2ccccc2)o1` (centres unmarked) | 9.278% | -2.977% | 0.7774% | 17.24% |
| 58 | `CCC(CC)(CCCNC(=O)c1c(C)noc1C)C1OCCO1` | 6.897% | 2.007% | 7.192% | 9.821% |
| 59 | `O=C(O)c1ccc(N2CCC(Oc3ccc(Cl)cc3)CC2)nc1` | 5.202% | 8.73% | 4.179% | 17.02% |
| 60 | `Cn1cc(CNC(=O)Nc2ccc(S(=O)(=O)C(F)F)cc2)cn1` | 4.459% | -1.908% | -0.9109% | 9.859% |

Some entries from above, unchanged:

Result for c1cncc(CN2CCC3(CCCN(c4nncs4)C3)C2)c1 (centres unmarked) was TcHisRS: 3.261%; ClpP1P2: -3.867%; PfKRS1: -0.4673%; LiHisRS: 25%.
Result for Cc1ccc(NC(=O)NCCn2cnc(C)c(C)c2=O)cc1F was TcHisRS: -0.5291%; ClpP1P2: -4.226%; PfKRS1: 1.334%; LiHisRS: 4%.
Result for COCCNc1ccccc1CNC(=O)NCc1nc(C)c(C)s1 was TcHisRS: 2.041%; ClpP1P2: -12.66%; PfKRS1: -3.348%; LiHisRS: 1.653%.
Result for O=C1CCC(=O)N1Cc1ccc(C(=O)N2CCCC2c2cccs2)cc1 (centres unmarked) was TcHisRS: 0%; ClpP1P2: 5.015%; PfKRS1: 1.206%; LiHisRS: 12.39%.

Source: ChEMBL document CHEMBL3988442, “University of Dundee, Small-Polar-MMV Screening Library” (2021).